Laboratory results from article PMC6954417.
For at least one entry, the source does not settle the construct or the ends of the probe. At least one verdict was read from the data and is not stated in words by the source.

Chains of the proteins cited; added tags and fusions are not shown. Lines headed by an entry give the natural chain unless they say otherwise; changes in a name come on top.
UniProt P43351: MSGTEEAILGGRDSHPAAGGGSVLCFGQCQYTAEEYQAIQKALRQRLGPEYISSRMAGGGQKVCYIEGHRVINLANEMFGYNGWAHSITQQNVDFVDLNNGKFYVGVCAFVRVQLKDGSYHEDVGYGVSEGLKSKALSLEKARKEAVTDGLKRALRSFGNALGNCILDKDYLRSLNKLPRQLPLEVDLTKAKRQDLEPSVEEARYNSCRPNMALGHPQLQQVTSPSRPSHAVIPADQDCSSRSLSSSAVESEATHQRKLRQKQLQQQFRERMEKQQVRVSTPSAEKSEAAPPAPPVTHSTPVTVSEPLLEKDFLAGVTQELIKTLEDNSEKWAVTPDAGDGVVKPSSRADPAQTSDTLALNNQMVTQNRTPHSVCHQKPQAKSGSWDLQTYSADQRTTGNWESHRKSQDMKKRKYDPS

What was measured:
[1] = biological target: RAD52 (untagged, pET11a) (Homo sapiens) (UniProt P43351); assay: EMSA; conditions: 10 nM DNA, 15-1000 nM protein, with or without 0.1% glutaraldehyde, ssDNA EMSA: 30 mM Tris-acetate pH 7.5, 1 mM DTT, RT, recombinant protein, label: 5'-Cy5 and 3'-Cy3 on strand 1
[2] = test system: RAD52 (untagged, pET11a) + DSS1; assay: EMSA; conditions: 1:20 complex, very small change versus RAD52 alone; ssDNA EMSA: 30 mM Tris-acetate pH 7.5, 1 mM DTT, RT, 0.1% glutaraldehyde; recombinant protein; label: 5'-Cy5 and 3'-Cy3 on strand 1
His6-RAD52 + DSS1 = assay: FRET titration; conditions: 1:20 complex, very small change versus RAD52 alone; FRET: same buffer + 0.1 mg/ml BSA, 25 C; recombinant protein; label: 5'-Cy5 and 3'-Cy3 on strand 1
[3] = biological target: His6-RAD52 (Homo sapiens) (UniProt P43351); assay: FRET titration; conditions: wrapped state gives high FRET; FRET: same buffer + 0.1 mg/ml BSA, 25 C; recombinant protein; protein details: His6 (N-terminal); label: 5'-Cy5 and 3'-Cy3 on strand 1

Measured: binding result

ATAGTTATGGTGAGGACCCCTTTGTTTC (double strand) [28 bp dsDNA (Cy5-28bp-Cy3 + 28CP)]
binds: all assays above
